These are yes or no findings as the source states them, for the method shown. In cells and extracts the contact can be indirect. Some entries that bind do so weakly or less than the wild type. Tags and fused reporters may be left off the sequences shown.
T1: cytoplasmic region of desmocollin-2a wild-type, GST fusion protein, expressed in COS-1 cells (UniProt Q02487)
T1 sequence: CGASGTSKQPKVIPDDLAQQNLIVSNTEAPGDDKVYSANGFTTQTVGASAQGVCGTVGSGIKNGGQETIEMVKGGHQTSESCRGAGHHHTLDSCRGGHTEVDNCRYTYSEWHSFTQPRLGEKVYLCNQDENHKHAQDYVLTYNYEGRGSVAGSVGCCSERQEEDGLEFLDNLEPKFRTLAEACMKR

Amino acid sequences for entries named in this document (tags omitted).
UniProt P17302: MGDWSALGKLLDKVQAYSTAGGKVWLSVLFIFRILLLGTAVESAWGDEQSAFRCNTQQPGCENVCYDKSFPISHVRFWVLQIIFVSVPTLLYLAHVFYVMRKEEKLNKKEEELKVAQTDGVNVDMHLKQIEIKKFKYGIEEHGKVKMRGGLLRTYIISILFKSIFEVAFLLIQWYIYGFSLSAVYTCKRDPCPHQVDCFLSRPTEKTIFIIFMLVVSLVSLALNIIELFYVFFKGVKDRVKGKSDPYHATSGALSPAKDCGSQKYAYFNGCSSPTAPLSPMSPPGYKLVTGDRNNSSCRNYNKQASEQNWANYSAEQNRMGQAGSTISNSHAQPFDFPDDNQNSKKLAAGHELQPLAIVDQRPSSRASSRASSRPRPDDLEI

T2: cytoplasmic region of desmocollin-2a wild-type, GST fusion protein, bacterially expressed (UniProt Q02487)
T2 sequence: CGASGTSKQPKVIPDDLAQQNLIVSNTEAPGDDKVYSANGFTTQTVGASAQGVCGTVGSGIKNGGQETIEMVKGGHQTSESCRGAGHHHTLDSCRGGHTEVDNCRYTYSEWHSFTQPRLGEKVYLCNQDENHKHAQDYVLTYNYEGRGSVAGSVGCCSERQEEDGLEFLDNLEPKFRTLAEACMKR


Assays:
[1] = molecular target: T1, cytoplasmic region of desmocollin-2a wild-type, GST fusion protein, expressed in COS-1 cells; test: pull-down; GST pulldown from COS-1 cells coexpressing GST fusions of the DSC2 cytoplasmic region with Cx43-YFP
[2] = molecular target: T2, cytoplasmic region of desmocollin-2a wild-type, GST fusion protein, bacterially expressed; test: pull-down; GST pulldown: bacterially expressed GST fusions of the DSC2 cytoplasmic region as bait, rat heart lysate; PG and PKP2 detected by blot; only the target purified

| binding [1] | binding [2] | Molecule |
| --- | --- | --- |
| binds |  | connexin43 yellow fluorescent protein (YFP) fusion protein (from UniProt P17302 1-382) |
|  | binds | plakoglobin from rat heart lysate (protein, UniProt Q6P0K8 1-745) MEVMNLIEQPIKVTEWQQTYTYDSGIHSGVNTCVPSVSSKGLLDEDDTCGRQYTLKKTTTYTQGVPQSQGDLEYQMSTTARAKRVREAMCPGVSGEDSSLLLATQVEGQTTNLQRLAEPSQLLKSAIVHLINYQDDAELATRALPELTKLLNDEDPVVVTKAAMIVNQLSKKEASRRALMGSPQLVAAVVRTMQNTSDLDTARCTTSILHNLSHHREGLLAIFKSGGIPALVRMLSSPVESVLFYAITTLHNLLLYQEGAKMAVRLADGLQKMVPLLNKNNPKFLAITTDCLQLLAYGNQESKLIILANGGPQGLVQIMRNYSYEKLLWTTSRVLKVLSVCPSNKPAIVEAGGMQALGKHLTSNSPRLVQNCLWTLRNLSDVATKQEGLENVLKILVNQLSVDDVNVLTCATGTLSNLTCNNSKNKTLVTQNSGVEALIHAILRAGDKDDITEPAVCALRHLTSRHPEAEMAQNSVRLNYGIPAIVKLLNQPNQWPLVKATIGLIRNLALCPANHAPLQEAAVIPRLVQLLVKAHQDAQRHVAAGTQQPYTDGVRMEEIVEGCTGALHILARDPMNRMEIFRLNTIPLFVQLLYSSVENIQRVAAGVLCELAQDKEAADAIDAEGASAPLMELLHSRNEGTATYAAAVLFRISEDKNPDYRKRVSVELTNSLFKHDPAAWEAAQSMIPINEPYADDMDATYRPMYSSDVPLDPLDMHMDMDGDYPMDTYSDGLRPPYPAADHMLA |
|  | binds | plakophilin-2 from rat heart lysate (protein, UniProt F1M7L9 1-814) MAIPGSLGECGYIRTVLGQQILGHLDSSSLALPSEARLRLAGSSGRGDPVARSQRIQEQVQQTLARRGRSSVVGGNLHRTSSVPEYVYKLHLVENDFVGRQSPAARDYDMLKVGLSGWRDGSTLKVPCTSIKPHREKKTWIEALREGLEHTTDHTDCPAHYVYSHYYFNSKKSNILVFQHIKDKSLQRNAIILLSPEHCTCQHVRLIPSSVLPSLFNQLQLSPELYFSNMGTLYMTSIKGTLCIQLLKGKLPAKHQANFVTMAERRVYTLLLSSTTSSETSFRRTGDTLPSVTSGQSRVHGLHFHHVICDCLSRNADLEMTLERAVNMLDADHVPLSKISAAATFIQHESFQKSEARKRVNQLQGIPKLLQLLKVQNEDVQRAVCGALRNLVFEDNDNKVTVVLGKVNITKREGGGQAAGYMKETWKLANKNPVFLGLLWNLSSSDKLKHLMITEALLTLTESVIIPFSGWPEGDYPKANGLLDFDIFYNVTGCLRNMSSAGPDGRKVMRRCDGLIDSLVHYVRGTIADYQPDDKATENCVCILHNLSYQLEAELPEKYSQSIYMQNRNIQTNSNKSIGCFGSRSRKVKEQYQDTPMPEERSSPRGIEWLWHSIVIRMYLSLIAKSSRNYTQEASLGALQNLTAGSGPIPTSVARMVVQKENGLQHTRKMLHVGDPSVKKTAVSLLRNLSRNLSLQNEIAKETLPDLVSIIPDTVPSTDLLIETTASACYTLNNLMQNSYQNARDLLNTGGLQKIMTISIGEGYAPNKASKAASVLLYSLWAHTELHNAYKKAQFKKTDFVNSRTAKASHSLKD |

Reference: paper PMC3085091
